Source: paper PMC6954241
No constants are given. Whether binding was seen depends on the method and setting. In cells and extracts the contact can be indirect. Some binding calls cover weakened binding; strength is not graded here.

The chains behind the UniProt entries cited, without tags or fusion partners.
UniProt Q9Z1E3: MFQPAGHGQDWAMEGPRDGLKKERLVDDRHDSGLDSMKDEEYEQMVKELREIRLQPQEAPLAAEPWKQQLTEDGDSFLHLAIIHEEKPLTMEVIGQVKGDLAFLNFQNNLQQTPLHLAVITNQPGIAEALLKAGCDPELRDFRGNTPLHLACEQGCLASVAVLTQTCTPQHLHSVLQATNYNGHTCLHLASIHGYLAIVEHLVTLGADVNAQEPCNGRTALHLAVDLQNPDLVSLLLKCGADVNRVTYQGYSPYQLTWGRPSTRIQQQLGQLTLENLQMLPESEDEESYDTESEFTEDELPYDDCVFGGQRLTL
UniProt Q04207: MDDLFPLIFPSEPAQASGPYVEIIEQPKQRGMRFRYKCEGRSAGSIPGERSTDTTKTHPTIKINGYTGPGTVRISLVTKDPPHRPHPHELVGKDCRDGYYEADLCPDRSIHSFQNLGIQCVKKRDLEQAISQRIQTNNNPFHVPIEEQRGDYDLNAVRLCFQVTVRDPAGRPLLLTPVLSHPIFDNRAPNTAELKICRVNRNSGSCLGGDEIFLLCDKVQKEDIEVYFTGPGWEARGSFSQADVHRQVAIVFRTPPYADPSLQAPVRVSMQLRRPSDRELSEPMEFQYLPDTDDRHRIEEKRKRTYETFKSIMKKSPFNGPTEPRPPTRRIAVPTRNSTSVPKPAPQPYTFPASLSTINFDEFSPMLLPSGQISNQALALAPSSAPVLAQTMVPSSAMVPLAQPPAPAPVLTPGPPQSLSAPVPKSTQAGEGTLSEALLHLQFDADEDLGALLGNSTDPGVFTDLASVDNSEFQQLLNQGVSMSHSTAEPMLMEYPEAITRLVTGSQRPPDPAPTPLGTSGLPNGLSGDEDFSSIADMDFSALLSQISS

Molecular target: IκBα (mouse (endogenous in RAW 264.7)) (UniProt Q9Z1E3)
Assay: co-IP; cytoplasmic extract of RAW 264.7 cells; IκBα antibody on Dynabeads Protein G, overnight at 4 °C, washed three times with PBS; blots for p65 and HDAC3; basal condition and PPL pretreatment followed by LPS

binding: binds
Substance: p65, a subunit of nuclear factor kappa-light-chain-enhancer of activated B cells (NF-κB p65) (from UniProt Q04207 1-549)
